Data from patent publication US20060079552A1, “1-[2-(4-benzyl-4-hydroxy-piperidin-1-yl)-ethyl]-3-(2-methyl-quinolin-4-yl)-urea salt” (priority 2004, published 2006).
At least one structure is not confirmed: it was looked up by name or label, or the drawing left a doubt.

Test: Hygroscopicity, static method (European Pharmacopoeia Technical Guide), weight increase in humidity cabinet
Format: physicochemical
Settings: after exposure to 79% RH for 24 h, RT
Procedure: Hygroscopicity was evaluated using the static method according to European Pharmacopoeia Technical Guide. Weight increase of the compound was observed when stored in a humidity cabinet at RT/79% RH for 24 h.

Row | Compound | Increase in weight (Δm) (malate) [%] | Increase in weight (Δm) [%]
1 | Cc1cc(NC(=O)NCCN2CCC(O)(Cc3ccccc3)CC2)c2ccccc2n1 [Example 5, 1-[2-(4-Benzyl-4-hydroxy-piperidin-1-yl)-ethyl]-3-(2-methyl-quinolin-4-yl)-urea malate] | 5 | –
2 | Cc1cc(NC(=O)NCCN2CCC(O)(Cc3ccccc3)CC2)c2ccccc2n1.O=C(O)CC(O)(CC(=O)O)C(=O)O [Example 6, 1-[2-(4-Benzyl-4-hydroxy-piperidin-1-yl)-ethyl]-3-(2-methyl-quinolin-4-yl)-urea citrate] | – | 2
